Library screening results

Amino acid sequences for entries named in this document (tags omitted).
UniProt E9BF75, entry or part of it: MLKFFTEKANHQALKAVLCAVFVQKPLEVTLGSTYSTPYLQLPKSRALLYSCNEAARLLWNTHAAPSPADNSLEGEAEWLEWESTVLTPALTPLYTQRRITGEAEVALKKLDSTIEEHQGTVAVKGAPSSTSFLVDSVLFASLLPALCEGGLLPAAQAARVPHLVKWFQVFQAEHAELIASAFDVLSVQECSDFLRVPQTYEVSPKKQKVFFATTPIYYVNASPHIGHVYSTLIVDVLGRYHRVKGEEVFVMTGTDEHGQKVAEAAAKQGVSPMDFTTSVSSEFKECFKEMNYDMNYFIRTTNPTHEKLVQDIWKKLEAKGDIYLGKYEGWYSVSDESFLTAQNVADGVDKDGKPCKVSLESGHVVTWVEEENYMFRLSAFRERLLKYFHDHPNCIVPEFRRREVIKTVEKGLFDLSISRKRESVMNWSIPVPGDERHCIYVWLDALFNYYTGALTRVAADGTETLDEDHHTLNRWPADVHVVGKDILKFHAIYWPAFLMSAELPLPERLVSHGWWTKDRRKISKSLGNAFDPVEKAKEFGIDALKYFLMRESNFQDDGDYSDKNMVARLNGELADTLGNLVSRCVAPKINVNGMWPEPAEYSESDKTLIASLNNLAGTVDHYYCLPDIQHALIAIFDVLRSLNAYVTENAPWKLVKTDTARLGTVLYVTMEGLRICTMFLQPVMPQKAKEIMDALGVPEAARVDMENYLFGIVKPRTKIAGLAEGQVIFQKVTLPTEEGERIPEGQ

Measurements from “University of Dundee, Small-Polar-MMV Screening Library” (2021), ChEMBL document CHEMBL3988442.

LdMetRS: 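Methionyl-tRNA synthetase (putative), Leishmania donovani (UniProt E9BF75). Primary screen of methionyl-tRNA synthetase; the read-out is not stated. The test concentration is not given. Values are per cent inhibition. Of about 68,000 compounds tested this way, about 24 (0.035%) reached 50% or more in at least one test.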
Mtb heat-shock: 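Assay on Mycobacterium tuberculosis, filed only as a heat shock assay from Cornell; the read-out is not stated. The concentration is filed as 10 mM, unlikely as a test dose, so the dose is not known. The record gives no direction; compounds that gave an IC50 in retests scored well above the rest, so higher reads as stronger inhibition. About 69,000 compounds were tested under these conditions; 1.4% (about 930) showed 50% or more at least once.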

Results are percentages, as filed.
The record does not define 0% and 100%; most values in the screen are far below 50% and negative numbers occur (in some assays of this library far below -100).
Compounds were drawn at random from those tested, without regard to their results.
A dash means the value is not listed here; it may have been measured.

| # | Compound | LdMetRS | Mtb heat-shock |
|---|---|---|---|
| 1 | `CN(C)C(=O)c1nn(C)c2c1CN(Cc1ccc(F)cc1)C2` | 3.125% | - |
| 2 | `COCCN(C)CCN1CC2(CCN(C3CCCCC3)CC2)OC1=O` | 16.72% | -1.552% |
| 3 | `Cc1nc(N2CCN(C(=O)NCc3cscn3)CC2)sc1C` | 14.44% | -9.651% |
| 4 | `N#Cc1ccc(OCC(O)CN2CCN(c3nccs3)CC2)cc1` (stereo unspecified) | -3.183% | -19.95% |
| 5 | `COCC(C)NC(=O)CSc1ccc(F)c(Cl)c1` (stereo unspecified) | 5.152% | -16.39% |
| 6 | `O=C(NCCN1CCCCC1)c1ccoc1` | 2.439% | -0.3001% |
| 7 | `O=C1CSc2ccccc2N1Cc1noc(C2CCCO2)n1` (stereo unspecified) | 8.616% | -7.988% |
| 8 | `O=C(Cc1ccncc1)N1CCC2(CC1)CC(c1ccccc1)CO2.O=C(O)C(F)(F)F` (stereo unspecified) | - | 53.05% |
| 9 | `NC(=O)CN1CCCN(C(=O)Cc2ccc(Br)cc2)CC1` | 21.1% | 0.6417% |
| 10 | `CCc1ccccc1Nc1noc2c1CN(C(=O)C1CCCO1)CC2` (stereo unspecified) | 15.43% | -14.9% |
| 11 | `O=C(CCNC(=O)c1ccccc1)Nc1ccncc1` | 13.38% | -9.367% |
| 12 | `COc1cc(C)ccc1OCCC(=O)N1CCC(N2CC=CC2)C1` (stereo unspecified) | 3.133% | 6.099% |
| 13 | `CC(=O)NCC1CCN(C(=O)c2csc(-c3ccc(C)cc3C)n2)CC1` | 14.92% | 26.69% |
| 14 | `CC1CN(C(=O)CN(Cc2ccccc2Br)C2CC2)CCO1` (stereo unspecified) | 13.19% | -3.455% |
| 15 | `[H][C@@]12C[C@@H](OCc3ccccn3)CN1CCN(C(=O)c1ccnnc1)C2` | - | 5.057% |
| 16 | `CCCc1ccc(CN2CCC3(CC2)CNC(=O)C3)o1` | 11.92% | 9.536% |
| 17 | `[H][C@@]12CCN(CC3CCOCC3)[C@]1([H])CC[C@H](c1nnc(C)o1)O2` | - | 7.476% |
| 18 | `Cc1nc(C)n(Cc2cccc(NC(=O)N(C)CCC(C)O)c2)n1` (stereo unspecified) | 6.906% | -19.8% |
| 19 | `O=C(O)C(F)(F)F.O=C(O)C(F)(F)F.c1cncc(OCc2nnn3c2CN(Cc2ccsc2)CCC3)c1` | - | -1.179% |
| 20 | `Cc1ccsc1CNC1CCCc2c1cnn2C` (stereo unspecified) | 7.216% | - |
| 21 | `CS(=O)(=O)NCCNCc1ccc(Br)s1.Cl` | - | -31.22% |
| 22 | `Cc1noc(C2CCC3(CCN(C(=O)c4ccnnc4)CC3)O2)n1` (stereo unspecified) | 10.15% | -20.25% |
| 23 | `Cc1ccc(C(=O)N2CCC(c3noc(-c4cccnc4)n3)CC2)cn1` | 10.38% | -14.86% |
| 24 | `CC(NCCNS(=O)(=O)c1cccc(Cl)c1)C1CCOCC1` (stereo unspecified) | 8.424% | -1.874% |
| 25 | `COc1cccc(CN(C)C(=O)c2csc(-c3nnc[nH]3)n2)c1` | 22.64% | -0.1365% |
| 26 | `COc1ccc(OCc2cc(C(=O)N3C[C@@H](C)O[C@@H](C)C3)n[nH]2)c(Cl)c1` | 1.567% | -1.908% |
| 27 | `[H][C@@]12CCN(C(=O)c3cccs3)C[C@@]1([H])O[C@H](c1nnc(C3CC3)o1)C2` | - | 56.75% |
| 28 | `CN(C)CCN(Cc1ccccn1)Cc1ccnn1C1CCCCO1.O=C(O)CC(O)(CC(=O)O)C(=O)O` (stereo unspecified) | - | 1.441% |
| 29 | `CC(NC(=O)N1CCN(CCc2ccccc2)CC1)c1nncn1C` (stereo unspecified) | 16.08% | -15.63% |
| 30 | `CS(=O)(=O)c1ccc(NC(=O)NC2(c3cccc(F)c3)CC2)cc1` | 14.56% | 0.9116% |
| 31 | `CC(C(=O)NCC1(c2cccc(Br)c2)CCC1)S(C)(=O)=O` (stereo unspecified) | 8.101% | -23.55% |
| 32 | `COCC(=O)N1CC[C@H]2[C@H]1CCN2CC(C)C` | 3.806% | - |
| 33 | `c1ccc(-c2ncc3c(n2)C2(CCN(c4ncccn4)C2)COC3)cc1` (stereo unspecified) | 3.226% | 10.48% |
| 34 | `[H][C@@]12CCC(=O)N(CCCOC)[C@]1([H])CCN(c1cc(C(N)=O)ccn1)C2` | - | -23.07% |
| 35 | `CN1CC[C@H](c2ccccc2)[C@@H]2[C@H]1CCCCN2C(=O)c1cnccn1` | 14.73% | - |
| 36 | `COc1c(C2CCCN2C(=O)c2cccnc2N(C)C)c(C)nn1C` (stereo unspecified) | 18.58% | -5.31% |
| 37 | `c1cncc(-c2ccc3c(c2)C2(CCNCC2)CC3)c1` | -1.812% | -40.79% |
| 38 | `CC(=O)NCC1CCCN(Cc2nc(Cc3ccccc3F)no2)C1` (stereo unspecified) | 8.447% | -5.553% |
| 39 | `Cc1ccc(C(=O)O)cc1S(=O)(=O)Nc1nn(-c2ccccc2)cc1C` | 9.36% | -9.701% |
| 40 | `O=C(O)C(F)(F)F.O=C(O)C(F)(F)F.[H][C@@]12COC[C@]1(CNS(=O)(=O)CC)CN(Cc1cccnc1)C2` | - | -17.47% |
| 41 | `CN1CC(=O)N(c2ccccc2)CC12CCN(CC1CCOCC1)C2.O=C(O)C(F)(F)F.O=C(O)C(F)(F)F` (stereo unspecified) | - | 3.802% |
| 42 | `Cc1ccc(N(CC(=O)c2ccc(Br)cc2)C2=NCCCCC2)cc1` | 29.58% | - |
| 43 | `O=C(O)CC(O)(CC(=O)O)C(=O)O.c1cnc2[nH]nc(C3CCN(Cc4ccsc4)CC3)c2c1` | - | -8.069% |
| 44 | `CN(C)C(=O)C1CN(Cc2nccs2)CCN(S(C)(=O)=O)C1` (stereo unspecified) | 7.292% | -13.12% |
| 45 | `Cc1ccc(S(=O)(=O)N2C[C@H]3C[C@H](NC(=O)c4cnn(C)c4)[C@H]3C2)cc1` | 5.825% | - |
| 46 | `Cc1nccn1-c1ccc(NS(=O)(=O)c2cnn(C(C)C)c2)cn1` | 9.524% | -20.88% |
| 47 | `Cl.OC1CCN(Cc2c(C3CCCNC3)[nH]c3ncccc23)CC1` (stereo unspecified) | - | 5.712% |
| 48 | `COc1ccc(CN2CCCn3cnc(COCC4CC4)c3C2)cc1` | 5.537% | - |
| 49 | `CCC1(CC)Cc2ccccc2-c2nc(NCCO)[nH]c(=O)c21` | 10.56% | -12.78% |
| 50 | `O=c1[nH][nH]cc1-c1ccnc(NCCc2cccc(O)c2)n1` | 14.81% | -13.28% |
| 51 | `CS(=O)(=O)NC1CCN(C(=O)NCCc2ccccc2F)CC1` | 9.841% | -7.514% |
| 52 | `COc1ccc(NC(=O)NCC(O)c2ccc(F)cc2F)c(OC)c1` (stereo unspecified) | 12.5% | 18.21% |
| 53 | `O=C1[C@H]2CN(Cc3cccs3)C[C@H]2CN1CCN1CCCC1` | 5.602% | - |
| 54 | `COc1ncc(-c2ccc(O)cc2)c(OC)n1` | 21.15% | -3.595% |
| 55 | `[H][C@@]12CCN(C[C@@H]1CN1CCC(C)CC1)[C@@H](CNC(=O)Nc1ccsc1)C2` | - | -36.04% |
| 56 | `CC(Cn1ccnc1)NCc1nncn1C1CCCCC1` (stereo unspecified) | 12.36% | -2.326% |
| 57 | `CS(=O)(=O)N[C@@H]1CN(C(=O)c2ccccn2)[C@@H]2CCCO[C@@H]21` | 9.091% | - |
| 58 | `Cc1n[nH]cc1CNCC(O)c1ccc(F)c(F)c1.Cl` (stereo unspecified) | - | -23.72% |
| 59 | `c1ccc(COC[C@H]2CC[C@H]3[C@H](CCN3Cc3ccco3)O2)nc1` | -4.908% | - |
| 60 | `COc1ccc2oc(C(C)NC(=O)NC3CCN(C)CC3)c(C)c2c1` (stereo unspecified) | 17.53% | 3.68% |
| 61 | `COc1cc(CN(C)C(=O)NCc2nccs2)ccc1SC` | - | -0.5764% |
| 62 | `Brc1cccnc1OC1CCNCC1` | 7.034% | - |
| 63 | `O=S(=O)(NCCCn1cncn1)c1ccc2c(c1)OCCO2` | 9.756% | -6.791% |
| 64 | `Cn1cncc1CN1CCC(O)(Cn2nc(-c3cccs3)oc2=O)CC1` | 15.43% | - |
| 65 | `CCN(C(=O)CN1CCCC1c1ccc(OC)cc1)c1ccccc1` (stereo unspecified) | 13.75% | -0.7731% |
| 66 | `Cc1ccccc1OCC(O)CN1CCC(Cn2cccn2)CC1` (stereo unspecified) | 14.21% | -35.36% |
| 67 | `CCCc1nnc(NC2CCN(C3CCSCC3)CC2)o1` | 12.32% | 8.725% |
| 68 | `CC(C)c1cccc(N2CCCC3(CCC(=O)N(C4CC4)C3)C2)n1` (stereo unspecified) | 20.87% | 2.361% |
| 69 | `COCCCn1ccc(NS(=O)(=O)c2cc(F)c(C)cc2F)n1` | 22.16% | 22.38% |
| 70 | `[H][C@]12CCN(C(=O)NC(C)C)C[C@@]1([H])OCCN(S(C)(=O)=O)C2` | - | 22.86% |
| 71 | `CCN(CC)C(=O)Cn1ccc2cc(NC(=O)C3CCCO3)ccc21` (stereo unspecified) | 16.33% | -6.779% |
| 72 | `CC(C)n1[nH]c(=O)c2c1NC(=O)CC2C1CCCCC1` (stereo unspecified) | 9.938% | -7.282% |
| 73 | `Cc1ccc(CN2CCN(Cc3cc(C)n[nH]3)CC2CCO)cc1` (stereo unspecified) | 2.527% | -22.87% |
| 74 | `Cl.[H][C@@]12CCN(Cc3cccs3)C[C@]1([H])[C@@H](c1ccsc1)CN2C(=O)C(C)(C)C` | - | 21.73% |
| 75 | `CCCS(=O)(=O)N1CCC2(CC1)COCCN(C(C)=O)C2` | 11.96% | -8.948% |
| 76 | `CC(C)CS(=O)(=O)N1C[C@H]2C[C@H](C(=O)N3CCOCC3)[C@@H](C1)O2` | 2.186% | - |

Some entries from above, unchanged:

Compound,LdMetRS,Mtb heat-shock
O=S(=O)(NCCCn1cncn1)c1ccc2c(c1)OCCO2,9.756%,-6.791%
CC(C)c1cccc(N2CCCC3(CCC(=O)N(C4CC4)C3)C2)n1 (stereo unspecified),20.87%,2.361%
COc1cccc(CN(C)C(=O)c2csc(-c3nnc[nH]3)n2)c1,22.64%,-0.1365%
NC(=O)CN1CCCN(C(=O)Cc2ccc(Br)cc2)CC1,21.1%,0.6417%
Cn1cncc1CN1CCC(O)(Cn2nc(-c3cccs3)oc2=O)CC1,15.43%,-